Consider three sequences from PMC9758184.

The exact form of at least one protein or probe is not confirmed. A negative result means that nothing was seen under these conditions. The comparison behind a weaker result is the experiment's own reference, which may not be listed here.

The subject of this data set is PmlR2 (Pseudomonas mendocina NBRC 14162). Briefly: SPR. The settings on record: SPR: HBS-EP, 28 C, recombinant protein, label: 5' biotin on strand 1.

“GATAGACACAGGTAAGCTTAGAACAAGTTTAAAGCTTAGGTCTTTCGAGG (double strand) [mutated Site 2 (BIA-2F/BIA-2R)]”: the binding result (8.6-275.2 nM PmlR2) is on record as “no binding”.

“GATAGACACAGGTTGTACAAGAACAAGTTTATGTACAAGGTCTTTCGAGG (double strand) [Site 2 of P6650 (BIA-1F/BIA-1R)]”: the binding result by setting is: (34.4 nM PmlR2 with 292.3 nM PmSB-LOV, blue light 450 nm 90 s) “binds more weakly”; (34.4 nM PmlR2 with 292.3 nM PmSB-LOV, dark or 365 nm, green or red light) “binds”; (34.4 nM PmlR2 with 292.3 nM PmSB-LOVC53A (P3), no inhibition) “binds”; (34.4 nM PmlR2 with PmSB-LOV, blue light then long dark incubation (recovery)) “binds”; (8.6-275.2 nM PmlR2) “binds”; (PmlR2 alone, illuminated, affinity unaffected) “binds”.

For the sequence “GTGTCTAGAATGACCGGCTCACCTGAGCCTGGGTTTTTGCCCAAACGGTT (double strand) [P468 (BIA-3F/BIA-4F)]”, for the setting “8.6-275.2 nM PmlR2”, the binding result is “no binding”.
